Results reported in patent publication US20230100559A1, “Compositions and Methods for Treatment of Disease by Manipulation of Serine Metabolism” (The Trustees of Princeton University, priority 2020, published 2023).
For at least one compound, name, drawing or mass did not settle the structure.

Tested on: HCT116 cells
Assay: NAD2H labeling from [2,3,3-2H]serine in cultured cells
Type: cell-based
Settings: added to metformin-treated cells (HCT116, 5 mM metformin)
Procedure: Adherent cells. Cells were seeded in 6 well plates overnight and then were treated with ETC inhibitors. Serine-free DMEM with 10% dialyzed FBS was supplemented with 400 µM [2,3,3, 2H]serine. Medium was replaced by the isotope tracing medium with corresponding drugs, and cells were incubated for 3 h. Medium was aspirated, and metabolism was quenched with extraction buffer (40:40:20 acetonitrile:methanol: water with 0.5% formic acid; 40 μl of extraction solvent per 1 μl packed cell volume)(Lu et al., 2018). Plates were placed on dry ice for 10 mins, and thereafter the extraction solution was neutralized with 15% NH4HCO3 (70 μl for 800 μl extraction buffer). Cells were then scraped off from plates by using a cell lifter (Corning 3008), transferred into Eppendorf tubes and centrifuged in a benchtop microfuge at maximum speed for 30 min at 4° C. […]
Calculation of 2H-serine contribution to malate, aspartate, and NADH: For malate and aspartate, the 2H-labeling fraction was measured directly (fractional size of 2H-peak relative to sum of all peaks, after isotope correction as above). For NADH, the 2H-labeling fraction was measured based on the active hydride labeling (x), which was determined from the labeling pattern of NAD+ and NADH by least square fitting in MATLAB of the observed experimental data (after natural isotope correction) to the below vectors (Liu et al., 2016a).

CC(=O)C(=O)O [pyruvate]
fractional contribution of serine to NADH: decreased
